In paper PMC6549176, “SAGA DUBm-mediated surveillance regulates prompt export of stress-inducible transcripts for proteostasis” (Nature Communications, 2019) one finds binding data, which are given here for 1 molecule.

The target of test [1] is GST-Yra1p C-terminal region (S. cerevisiae). The test is described as follows: pull-down; GST-tagged Yra1p or its subfragments as bait (1 µg) on beads, 200 ng target protein; 50 mM HEPES-KOH pH 7.5, 150 mM NaCl, 10% glycerol, 0.1% NP40, 0.5 mM DTT, 1 mM EDTA; 4 °C, 2 h; Western blotting; both purified. (In general: In western blotting, separated proteins are transferred to a membrane and probed.)

Test [2] concerns the target GST-Yra1p N-terminal region (S. cerevisiae). Described as above.

These are yes or no findings as the source states them, for the method shown. Binding can be weak; no strength is given. Sequences can lack the tags named with a protein.

B1: recombinant Sgf73p (MBP-Sgf73p) (protein, UniProt P53165 1-657)
chain: MRSGDAEIKGIKPKVIEEYSLSQGSGPSNDSWKSLMSSAKDTPLQYDHMNRESLKKYFNPNAQLIEDPLDKPIQYRVCEKCGKPLALTAIVDHLENHCAGASGKSSTDPRDESTRETIRNGVESTGRNNNDDDNSNDNNNDDDDDDDNDDNEDDDDADDDDDNSNGANYKKNDSSFNPLKRSTSMESANTPNMDTKRSKTGTPQTFSSSIKKQKKVKQRNPTEKHLIDFNKQCGVELPEGGYCARSLTCKSHSMGAKRAVSGRSKPYDVLLADYHREHQTKIGAAAEKRAKQQELQKLQKQIQKEQKKHTQQQKQGQRSKQRNVNGGKSAKNGGKSTVHNGNNINEIGHVNLTPEEETTQVLNGVSRSFPLPLESTVLSSVRYRTKYFRMREMFASSFSVKPGYTSPGYGAIHSRVGCLDLDRTTDYKFRVRTPQPINHLTNQNLNPKQIQRLQQQRALQAQLLSQQQQQQQQQQQHHSPQAQAQASTQQPTQGMVPNHFPGGATNSSFNANVSSKQIQQQQQQQQHKSQDTGLTPLEIQSQQQKLRQQQLQQQKFEAAASYLANATKLMQESNQDSHLSGTHNNNSSKNGNNNLMTMKASISSPNTSVNSIQSPPSVNSVNGSGQGVSTGINVSGNNGRIEVGIGNSVNPYNGRIN
Take B1: the binding result in test [1] and in test [2] was “binds” throughout.
